Results taken from US5491128A, “Aglycons of A/16686 antibiotics” (Gruppo Lepetit S.p.A., priority 1988, dated 1996).
Values after ≈ are worked out from the molar mass of the structure shown. At least one peptide structure holds a part that was inferred or is arguable (an end, a ring closure or a residue). *1 amine or outer side, *2 acyl side, *3 side chain or, on linkers, in order; H or OH if unused. Where a SMILES comes first, the peptide text is derived from it. Bridges are numbered along the chain shown (N, C = ends). [ ]: non-standard residue; d: D form. The star is where a group is joined. ξ: configuration not given here. ξPhg(3-Cl-4-OH) = NC(C(=O)O)c1ccc(O)c(Cl)c1; X2 = NC(=O)C(O[*:3])C(N[*:1])C(=O)[*:2]; Hpg = N[CH](C(=O)O)c1ccc(O)cc1; X4 = CC(C)CCC=CC=CC(=O)*; Orn = NCCC[CH](N)C(=O)O; X1 = CC(C)CC=CC=CC(=O)*; X3 = CCCC=CC=CC(=O)*

Key:
Assay type in all cases: cell-based
[1] = tested on: Staphylococcus haemolyticus; assay: In vitro MIC, broth serial two-fold dilution; conditions: Staphylococcus haemolyticus L 602, clinical isolate
Propionibacterium acnes = assay: In vitro MIC, agar serial two-fold dilution, anaerobic
Staphylococcus aureus = assay: In vitro MIC, broth serial two-fold dilution; conditions: Staphylococcus aureus Tour
Streptococcus pyogenes = assay: In vitro MIC, broth serial two-fold dilution; conditions: Streptococcus pyogenes C203 SKF 13400
Streptococcus faecalis = assay: In vitro MIC, broth serial two-fold dilution; conditions: Streptococcus faecalis ATCC 7080
[2] = tested on: Staphylococcus epidermidis; assay: In vitro MIC, broth serial two-fold dilution
Streptococcus mitis = assay: In vitro MIC, broth serial two-fold dilution; conditions: Streptococcus mitis L 796, clinical isolate
Streptococcus pneumoniae = assay: In vitro MIC, broth serial two-fold dilution; conditions: Streptococcus pneumoniae UC41
[3] = Propionibacterium acnes ATCC 6922
[4] = Propionibacterium acnes L 1557, clinical isolate
[5] = Propionibacterium acnes L 1559, clinical isolate
[6] = Propionibacterium acnes L 1563, clinical isolate
[7] = Propionibacterium acnes L 1565, clinical isolate
[8] = Staphylococcus epidermidis ATCC 12228

## CCCC=CC=CC(=O)NC(CC(N)=O)C(=O)NC1C(=O)NC(c2ccc(O)cc2)C(=O)NC(CCCN)C(=O)NC(C(C)O)C(=O)NC(c2ccc(O)cc2)C(=O)NC(c2ccc(O)cc2)C(=O)NC(C(C)O)C(=O)NC(Cc2ccccc2)C(=O)NC(CCCN)C(=O)NC(c2ccc(O)cc2)C(=O)NC(C(C)O)C(=O)NC(c2ccc(O)cc2)C(=O)NCC(=O)NC(CC(C)C)C(=O)NC(C)C(=O)NC(c2ccc(O)c(Cl)c2)C(=O)OC1C(N)=O (stereo not drawn) [Factor A1 aglycon, A/16686 factor A1 aglycon] (X3-N[X2][Hpg][Orn]T[Hpg][Hpg]TF[Orn][Hpg]T[Hpg]GLA[ξPhg(3-Cl-4-OH)]; ester 2-C; configuration not given here)
[1]
  MIC: 0.25 µg/mL (≈ 0.113 µM)
Propionibacterium acnes; [3]
  MIC: 0.063 µg/mL (≈ 0.0284 µM)
Propionibacterium acnes; [4]
  MIC: 0.063 µg/mL (≈ 0.0284 µM)
Propionibacterium acnes; [5]
  MIC: 0.125 µg/mL (≈ 0.0564 µM)
Propionibacterium acnes; [6]
  MIC: 0.125 µg/mL (≈ 0.0564 µM)
Propionibacterium acnes; [7]
  MIC: 0.125 µg/mL (≈ 0.0564 µM)
Staphylococcus aureus; 30% bovine serum added
  MIC: 1 µg/mL (≈ 0.451 µM)
Staphylococcus aureus; inoculum 10^6 cfu/ml
  MIC: 2 µg/mL (≈ 0.903 µM)
Staphylococcus aureus; inoculum about 10^4 cfu/ml
  MIC: 1 µg/mL (≈ 0.451 µM)
Streptococcus pyogenes
  MIC: 0.008 µg/mL (≈ 0.00361 µM)
Streptococcus faecalis
  MIC: 1 µg/mL (≈ 0.451 µM)
[2]; [8]
  MIC: 0.5 µg/mL (≈ 0.226 µM)
Streptococcus mitis
  MIC: 0.125 µg/mL (≈ 0.0564 µM)
Streptococcus pneumoniae
  MIC: 0.016 µg/mL (≈ 0.00722 µM)

## CC(C)CC=CC=CC(=O)NC(CC(N)=O)C(=O)NC1C(=O)NC(c2ccc(O)cc2)C(=O)NC(CCCN)C(=O)NC(C(C)O)C(=O)NC(c2ccc(O)cc2)C(=O)NC(c2ccc(O)cc2)C(=O)NC(C(C)O)C(=O)NC(Cc2ccccc2)C(=O)NC(CCCN)C(=O)NC(c2ccc(O)cc2)C(=O)NC(C(C)O)C(=O)NC(c2ccc(O)cc2)C(=O)NCC(=O)NC(CC(C)C)C(=O)NC(C)C(=O)NC(c2ccc(O)c(Cl)c2)C(=O)OC1C(N)=O (stereo not drawn) [Factor A2 aglycon, A/16686 factor A2 aglycon] (X1-N[X2][Hpg][Orn]T[Hpg][Hpg]TF[Orn][Hpg]T[Hpg]GLA[ξPhg(3-Cl-4-OH)]; ester 2-C; configuration not given here)
[1]
  MIC: 0.25 µg/mL (≈ 0.112 µM)
Propionibacterium acnes; [3]
  MIC: 0.125 µg/mL (≈ 0.0561 µM)
Propionibacterium acnes; [4]
  MIC: 0.125 µg/mL (≈ 0.0561 µM)
Propionibacterium acnes; [5]
  MIC: 0.125 µg/mL (≈ 0.0561 µM)
Propionibacterium acnes; [6]
  MIC: 0.125 µg/mL (≈ 0.0561 µM)
Propionibacterium acnes; [7]
  MIC: 0.125 µg/mL (≈ 0.0561 µM)
Staphylococcus aureus; 30% bovine serum added
  MIC: 2 µg/mL (≈ 0.897 µM)
Staphylococcus aureus; inoculum 10^6 cfu/ml
  MIC: 2 µg/mL (≈ 0.897 µM)
Staphylococcus aureus; inoculum about 10^4 cfu/ml
  MIC: 1 µg/mL (≈ 0.448 µM)
Streptococcus pyogenes
  MIC: 0.032 µg/mL (≈ 0.0144 µM)
Streptococcus faecalis
  MIC: 0.5 µg/mL (≈ 0.224 µM)
[2]
  activity against S. epidermidis: good activity
[2]; [8]
  MIC: 0.032 µg/mL (≈ 0.0144 µM)
[2]; Staphylococcus epidermidis L 354, clinical isolate
  MIC: 0.5 µg/mL (≈ 0.224 µM)
[2]; Staphylococcus epidermidis L 357, clinical isolate
  MIC: 1 µg/mL (≈ 0.448 µM)
[2]; Staphylococcus epidermidis L 393, clinical isolate, methicillin-resistant
  MIC: 0.125 µg/mL (≈ 0.0561 µM)
[2]; Staphylococcus epidermidis L 420, clinical isolate, methicillin-resistant
  MIC: 0.125 µg/mL (≈ 0.0561 µM)
[2]; Staphylococcus epidermidis L 576, clinical isolate
  MIC: 0.125 µg/mL (≈ 0.0561 µM)
[2]; Staphylococcus epidermidis L 580, clinical isolate, methicillin-resistant
  MIC: 0.25 µg/mL (≈ 0.112 µM)
[2]; Staphylococcus epidermidis L 586, clinical isolate
  MIC: 0.032 µg/mL (≈ 0.0144 µM)
[2]; Staphylococcus epidermidis L 600, clinical isolate, methicillin-resistant
  MIC: 0.125 µg/mL (≈ 0.0561 µM)
[2]; Staphylococcus epidermidis L 619, clinical isolate, methicillin-resistant
  MIC: 0.125 µg/mL (≈ 0.0561 µM)
[2]; Staphylococcus epidermidis L 838, clinical isolate, methicillin-resistant
  MIC: 0.063 µg/mL (≈ 0.0283 µM)
[2]; Staphylococcus epidermidis L 848, clinical isolate, methicillin-resistant
  MIC: 0.5 µg/mL (≈ 0.224 µM)
[2]; Staphylococcus epidermidis L 874, clinical isolate, methicillin-resistant
  MIC: 0.032 µg/mL (≈ 0.0144 µM)
[2]; Staphylococcus epidermidis L 1065, clinical isolate
  MIC: 0.032 µg/mL (≈ 0.0144 µM)
[2]; Staphylococcus epidermidis L 1067, clinical isolate
  MIC: 0.032 µg/mL (≈ 0.0144 µM)
[2]; Staphylococcus epidermidis L 1378, clinical isolate
  MIC: 0.25 µg/mL (≈ 0.112 µM)
[2]; Staphylococcus epidermidis L 1471, clinical isolate
  MIC: 0.5 µg/mL (≈ 0.224 µM)
[2]; Staphylococcus epidermidis L 1480, clinical isolate
  MIC: 0.5 µg/mL (≈ 0.224 µM)
[2]; Staphylococcus epidermidis L 1575, clinical isolate, methicillin-resistant
  MIC: 0.5 µg/mL (≈ 0.224 µM)
[2]; Staphylococcus epidermidis L 1578, clinical isolate, methicillin-resistant
  MIC: 0.125 µg/mL (≈ 0.0561 µM)
[2]; Staphylococcus epidermidis L 1579, clinical isolate
  MIC: 0.032 µg/mL (≈ 0.0144 µM)
Streptococcus mitis
  MIC: 0.063 µg/mL (≈ 0.0283 µM)
Streptococcus pneumoniae
  MIC: 0.032 µg/mL (≈ 0.0144 µM)

## CC(C)CCC=CC=CC(=O)NC(CC(N)=O)C(=O)NC1C(=O)NC(c2ccc(O)cc2)C(=O)NC(CCCN)C(=O)NC(C(C)O)C(=O)NC(c2ccc(O)cc2)C(=O)NC(c2ccc(O)cc2)C(=O)NC(C(C)O)C(=O)NC(Cc2ccccc2)C(=O)NC(CCCN)C(=O)NC(c2ccc(O)cc2)C(=O)NC(C(C)O)C(=O)NC(c2ccc(O)cc2)C(=O)NCC(=O)NC(CC(C)C)C(=O)NC(C)C(=O)NC(c2ccc(O)c(Cl)c2)C(=O)OC1C(N)=O (stereo not drawn) [Factor A3 aglycon, A/16686 factor A3 aglycon] (X4-N[X2][Hpg][Orn]T[Hpg][Hpg]TF[Orn][Hpg]T[Hpg]GLA[ξPhg(3-Cl-4-OH)]; ester 2-C; configuration not given here)
[1]
  MIC: 0.5 µg/mL (≈ 0.223 µM)
Propionibacterium acnes; [3]
  MIC: 0.25 µg/mL (≈ 0.111 µM)
Propionibacterium acnes; [4]
  MIC: 0.5 µg/mL (≈ 0.223 µM)
Propionibacterium acnes; [5]
  MIC: 0.5 µg/mL (≈ 0.223 µM)
Propionibacterium acnes; [6]
  MIC: 0.25 µg/mL (≈ 0.111 µM)
Propionibacterium acnes; [7]
  MIC: 0.5 µg/mL (≈ 0.223 µM)
Staphylococcus aureus; 30% bovine serum added
  MIC: 1 µg/mL (≈ 0.446 µM)
Staphylococcus aureus; inoculum 10^6 cfu/ml
  MIC: 2 µg/mL (≈ 0.891 µM)
Staphylococcus aureus; inoculum about 10^4 cfu/ml
  MIC: 1 µg/mL (≈ 0.446 µM)
Streptococcus pyogenes
  MIC: 0.008 µg/mL (≈ 0.00357 µM)
Streptococcus faecalis
  MIC: 1 µg/mL (≈ 0.446 µM)
[2]; [8]
  MIC: 0.5 µg/mL (≈ 0.223 µM)
Streptococcus mitis
  MIC: 0.125 µg/mL (≈ 0.0557 µM)
Streptococcus pneumoniae
  MIC: 0.016 µg/mL (≈ 0.00713 µM)
